Test results: PMC3254606

Target: T1, GST-apoptin (Chicken Anemia Virus) (UniProt P54094)
T1 sequence: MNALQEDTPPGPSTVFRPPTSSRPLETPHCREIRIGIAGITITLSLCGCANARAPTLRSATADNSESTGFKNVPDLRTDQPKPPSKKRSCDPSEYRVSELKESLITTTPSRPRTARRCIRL
Assay: pull-down; 5–10 µg GST-apoptin with 500 µg total cell lysate on glutathione sepharose beads, overnight at 4°C, IP buffer (50 mM Tris-HCl pH 8.0, NaCl 150 mM, 0.5% detergent, EDTA 1 mM, protease and phosphatase inhibitors), at least six washes; immunoblot with anti-Bcr-Abl or anti-Bcr antibody (Fig. 2B, 2D); only the target purified

Substance: Bcr-Abl^p210ΔSH3-R1053L
- binding: no binding

Substance: Bcr-Abl^p210P1013L-R1053L
- binding: binds weakly

Substance: Bcr-Abl^p210ΔSH2 ΔSH3
- binding: no binding

Substance: Bcr-Abl^p210ΔSH2
- binding: binds

Results are given in words; binding and its absence hold for the method and conditions named. In cells and extracts the contact can be indirect. Binding can be weak; no strength is given. Sequences can lack the tags named with a protein.
